Source: PubChem BioAssay AID1671190 (National Center for Advancing Translational Sciences (NCATS), 2021)
“And” between values parts separate entries of the source, which are not always exact repeats. Equal values may be shown once. Among all 580,000 compounds or so, about 6,100 (1.1%) were called active. Inconclusive results, whose numbers are uncertain, are shown with a selection of clear calls. Calls follow the shape of the dose curve; as a rule, active = well fitted inhibition curve with a large enough effect; inconclusive = small, poorly fitted or top-dose-only effect, or another doubt; inactive = no such curve, though single readings can be large or run the other way. Where the call is inconclusive, the potency comes from a doubtful curve fit.

Amino acid sequences for entries named in this document (tags omitted).
UniProt P18054, whole entry, looked up: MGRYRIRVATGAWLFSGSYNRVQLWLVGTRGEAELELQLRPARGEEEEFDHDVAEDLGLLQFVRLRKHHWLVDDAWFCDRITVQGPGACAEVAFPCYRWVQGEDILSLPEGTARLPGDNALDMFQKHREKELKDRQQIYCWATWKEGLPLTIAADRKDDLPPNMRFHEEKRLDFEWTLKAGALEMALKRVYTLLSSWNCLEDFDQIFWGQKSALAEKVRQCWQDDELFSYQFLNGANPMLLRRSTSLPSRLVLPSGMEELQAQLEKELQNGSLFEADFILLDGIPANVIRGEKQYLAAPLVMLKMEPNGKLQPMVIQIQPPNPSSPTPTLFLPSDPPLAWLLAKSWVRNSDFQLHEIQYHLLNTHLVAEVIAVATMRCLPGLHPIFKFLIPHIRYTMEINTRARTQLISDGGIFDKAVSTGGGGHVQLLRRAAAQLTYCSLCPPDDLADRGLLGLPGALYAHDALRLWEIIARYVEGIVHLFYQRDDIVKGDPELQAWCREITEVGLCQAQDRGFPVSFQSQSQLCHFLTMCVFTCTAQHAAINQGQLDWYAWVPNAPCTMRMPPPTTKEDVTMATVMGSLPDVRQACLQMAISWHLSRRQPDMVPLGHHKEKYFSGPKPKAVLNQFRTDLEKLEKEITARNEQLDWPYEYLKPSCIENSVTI

These molecules were tested against Polyunsaturated fatty acid lipoxygenase ALOX12 (Homo sapiens) (UniProt P18054) (assay: Primary qHTS assay for inhibitors of human arachidonate 12S-lipoxygenase (ALOX12): Round 2). Conditions: purified 12hLO, xylenol orange hydroperoxide absorbance; activity change, negative = inhibition: at 108 µM (top of the series) unless noted.
Text: Assay Provider: Theodore R. Holman Ph.D. University of California, Santa Cruz, California Human lipoxygenase 12hLO is a member of the closely related lipoxygenase family of enzymes which catalyze the site-specific oxidation of arachidonic acid to various hormone precursor molecules and as such is a candidate for drug development in a variety of disease areas, such as cancer and inflammation. Inhibition of 12hLO activity was screened by utilizing arachidonic acid as a substrate. The extent of hydroperoxide product formation was measured by a secondary chromogenic reaction in which xylenol orange (XO, Sigma-Aldrich, cat. number 39,818-7) reacts with the ferric ions produced from the reaction between the hydroperoxide and ferrous ions. The Fe (III)-XO complex is characterized with red-shifted absorbance at 560 nm. A purified preparation of human 12hLO was supplied by Dr. Holman laboratory, University of California, Santa Cruz.
PROTOCOL TABLE SEQUENCE No. (e.g., 1, 2, 3, etc.); […] (e.g., Cells, Incubation, Reagent, etc.); VALUE; DESCRIPTION 1; Enzyme; 3 uL; 150 nM 12hLO enzyme solution dispensed in 1536-well Greiner black, clear bottom plates. 2; Compound; 23 nL; compounds and controls were added. 3; Incubate; 15 min; room temperature. 4; Substrate; 1 uL; 40 uM arachidonic acid (final concentration). 5; Incubate; 30 min; room temperature. 6; Reagent; 4 uL; Fe-XO solution was added to each well. 7; Incubation; 30 min; room temperature 8; Detector; absorbance; Read 1 at 405 nm absorbance using ViewLux (Perkin-Elmer) CCD imager. 9; Detector; absorbance; Read 2 at 573 nm absorbance using ViewLux (Perkin-Elmer) CCD imager. NOTES (numbers refer to sequence above) 1; 150 nM 12hLO (final concentration) in buffer solution (25 mM Hepes, 0.01% Triton X-100, pH 7.0) was dispensed in columns 1, 2, 5-48. Column 1 is neutral (100% activity). Buffer only was dispensed in columns 3 and 4 as no enzyme negative controls. The plates were covered with metal lids with gas-exchange holes. 2; Compounds were pin transferred via a Kalypsys Pin Tool (Wako USA) in column 5-48. Control compound was transferred in column 2, titration of nordihydroguaiaretic acid (NDGA, Sigma-Aldrich, N5023) with top concentration of 20 mM in DMSO then 1:3 dilution in duplicate. Dilution factor of 23 nL into 4 uL final assay volume. 3; Covered assay plates were incubated for 15 min at room temperature. 4; Substrate was added to start the reaction; 40 uM arachidonic acid (Sigma-Aldrich, St. Louis, MO) was dispensed throughout the plate. 6; Chromogenic detection reagent solution (divalent iron/xylenol orange, Fe-XO) was added to each well: 200 uM xylenol orange, 300 uM ferrous ammonium sulfate prepared freshly in 50 mM sulfuric acid. 8, 9; Two absorbance readouts were obtained at 405 nm and at 573 nm using a ViewLux high-throughput CCD plate imager (Perkin-Elmer). The 573 to 405 (Read 2 / Read 1) absorbance ratio was used to compute reaction progress.
% is scaled to controls: 0 for no effect and ±100 for the full control effect; potency is read from the fitted curve at half-maximal effect.

Compound	Potency	activity change, negative = inhibition
Cc1cc(Cl)cc(C)c1OCCNCc1ccccc1	inconclusive: 0.447 µM [inhibitor, full curve, poor fit]	
O=S(=O)(c1ccc2c(c1)CCCN2)N1CCCC1	inconclusive: 35.5 µM [inhibitor, partial curve, poor fit]	
C=CCn1c(SC)nc2c1c(=O)[nH]c(=O)n2C	inconclusive: 44.7 µM [inhibitor, partial curve, poor fit]	
Cc1ccc(-c2cc3c(nc2-c2ccccc2)nc(C(=O)NCCN(C)C)n3C)cc1	inconclusive: 112 µM [inhibitor, single point]	
COc1cc(CNCc2ccc(OC)c3ccccc23)cc(OC)c1OC	inconclusive: 0.631 µM [inhibitor, full curve, poor fit]	
O=c1c2ccccc2[nH]c2ccc(O)cc12	inconclusive: 44.7 µM [inhibitor, partial curve]	
CC(OC(=O)Cc1n[nH]c(=O)c2ccccc12)C(=O)Nc1ccc(F)cc1Cl (stereo not drawn)	inactive	
COc1ccccc1CN(C)CC(=O)NC1CCCc2ccccc21 (stereo not drawn)	inactive	
COc1ccc2c(C(F)(F)F)cc(=S)[nH]c2c1	active: 35.5 µM	
CCC(NC(=O)C1CCN(C(=O)/C=C/c2ccccc2)CC1)C12CC3CC(CC(C3)C1)C2 (stereo not drawn)	inconclusive: 50.1 µM [inhibitor, partial curve, poor fit]	
C=C(Cl)CN1CCC(C(=O)NCCc2ccccc2F)CC1	inconclusive: 89.1 µM [inhibitor, single point]	
COc1ccc(N)cc1OCCO	inconclusive: 12.6 µM [inhibitor, full curve, poor fit]	
CC(=O)Nc1ccc(S(=O)(=O)NCCOc2ccc(Cl)cc2C)cc1	inactive	
Cc1cc(N2C(=O)C3C4C=CC(C4)C3C2=O)ccc1NC(=O)c1cccs1 (stereo not drawn)	inconclusive: 35.5 µM [inhibitor, partial curve, poor fit]	
Clc1nssc1=Nc1nncs1	active: 4.47 µM	
CC(C)C(=O)Nc1ccc(Sc2ccc(Br)cc2)cc1	inconclusive: 89.1 µM [inhibitor, single point]	
COc1cc(C2/C(=C(\O)c3ccc4c(c3)OCCO4)C(=O)C(=O)N2c2nnc(C)s2)cc(OC)c1OC (stereo not drawn)	inconclusive: 3.98 µM [inhibitor, partial curve, poor fit]	
CCOCCn1ccc2c(OCC(=O)Nc3ccccc3OC)cccc2c1=O	inconclusive: 35.5 µM [inhibitor, partial curve, poor fit]	
CC(C)(C)C(=O)/C=c1\s/c(=C\c2ccc(-c3ccc([N+](=O)[O-])cc3)o2)c(=O)n1CC(=O)NC(N)=O	inconclusive: 14.1 µM [inhibitor, full curve, poor fit]	
CCN1CC(CN(C)Cc2nc(Cc3ccccc3)no2)Oc2ccccc21 (stereo not drawn)	inconclusive: 28.2 µM [inhibitor, partial curve]	
Cc1ccccc1-c1nccc(NCc2cccnc2)n1	inconclusive: 44.7 µM [inhibitor, partial curve, poor fit]	
CN(CCCNC(=O)c1cc2c(Cl)nc3ccccc3c2s1)Cc1ccccc1	inconclusive: 126 µM [inhibitor, single point] and inconclusive: 50.1 µM [inhibitor, partial curve, poor fit]	
Cc1c(Cl)cccc1NC(=O)CSc1ncc2c(n1)-c1ccccc1N(C)S2(=O)=O	inconclusive: 2.82 µM [inhibitor, single point]	

3 compounds already listed, ordered by molecular weight, smallest number first.
Compound	Potency	activity change, negative = inhibition
C=CCn1c(SC)nc2c1c(=O)[nH]c(=O)n2C	inconclusive: 44.7 µM [inhibitor, partial curve, poor fit]	
Cc1cc(Cl)cc(C)c1OCCNCc1ccccc1	inconclusive: 0.447 µM [inhibitor, full curve, poor fit]	
C=C(Cl)CN1CCC(C(=O)NCCc2ccccc2F)CC1	inconclusive: 89.1 µM [inhibitor, single point]	

The results go on.

Compound	Potency	activity change, negative = inhibition
Cc1cccc(NC2=NC(=S)N(c3ccc(C(=O)O)cc3)C23CCCCC3)c1	inactive	
COC(=O)C(N)Cc1ccc(OC)c([N+](=O)[O-])c1 (stereo not drawn)	inconclusive: 100 µM [inhibitor, single point]	
CCc1ccc(S(=O)(=O)c2cnc3ccccc3c2N2CCOCC2)cc1	inconclusive: 14.1 µM [inhibitor, partial curve, poor fit]	
CCC(C)C1NC(=S)N(C2CCCCC2)C1=O (stereo not drawn)	inactive	
N#Cc1ccc(S(=O)(=O)NC2CCN(Cc3ccccc3)CC2)cc1	inconclusive: 126 µM [inhibitor, single point]	
Oc1ccccc1-c1cnc2cccnn12	inactive	
CCNc1nc2c(s1)C(c1cccc(F)c1)CC(=O)N2 (stereo not drawn)	inconclusive: 10 µM [inhibitor, full curve]	
Cc1noc(C)c1C(=O)N1CCC2(CC1)CN([S+](C)(=O)[O-])Cc1ccccc1O2		inactive: 8.56% [at 6.33 µM]
CCOCCCn1c(SCC(=O)Nc2ccc(OC)cc2)nc2ccccc2c1=O	inactive	
O=C(CCc1ccccc1)NC1CCN(c2nnc3ccccn23)CC1	inactive	
CC(=O)Nc1ccc(-c2csc(NC(=O)CCCc3cccs3)n2)cc1	inactive	
Cc1cc(C)c(NC(=O)Cn2cc(S(=O)(=O)Cc3ccccc3F)c3ccccc32)c(C)c1	inconclusive: 141 µM [inhibitor, partial curve, poor fit]	
Cc1cc(C(=O)N2CCCCCC2)sc1C	inactive	
COc1cccc(-c2nc(-c3ccc4c(c3)-c3ccccc3S4(=O)=O)c(-c3ccccc3)[nH]2)c1OC	inactive	
COc1cccc(C2OC(=O)c3ccccc3N2C(C)=O)c1OC(C)=O (stereo not drawn)	inconclusive: 89.1 µM [inhibitor, single point]	
O=C(CSc1ncc(-c2ccccc2)o1)Nc1ccc(Cl)cc1	inconclusive: 50.1 µM [inhibitor, partial curve, poor fit]	
CC(=O)c1cccc(NC(=O)C(C)n2c(=O)cc(C)c3c(C)nn(-c4ccccc4)c32)c1 (stereo not drawn)	inactive	
COc1ccc(CCNC(=O)c2ccc(Nc3nc4ccccc4n4nnnc34)cc2)cc1OC	inconclusive: 141 µM [inhibitor, partial curve, poor fit]	
COc1ccc(NC(=O)c2n[nH]c3ccccc23)cc1S(=O)(=O)Nc1ccccc1Cl	inactive	
Cc1nn2c(c1-c1ccccc1Oc1ccccc1)N(Cc1cccc(O)c1)CCC2	inconclusive: 25.1 µM [inhibitor, full curve]	
CCOc1cc(/C=C2\C(=O)N(c3cccc(C(F)(F)F)c3)C(=O)c3ccccc32)ccc1O	inconclusive: 50.1 µM [inhibitor, partial curve, poor fit]	
CCOC(=O)c1ccc(NC(=O)CSc2ncnc3c(-c4ccc(OC)cc4)c[nH]c23)cc1	inconclusive: 0.398 µM [inhibitor, full curve, poor fit]	
O=C(OCC(=O)N1CCc2ccccc21)c1ccc(Cl)c([N+](=O)[O-])c1	inactive	

Compound	Potency	activity change, negative = inhibition
Cc1cc(C)n2nc(C(=O)NNC(=O)c3ccc(Cl)cc3)nc2n1	inactive	
CCCn1c(=O)c2sc(N3CCCC3)nc2n(CC(=O)Nc2cc(C)ccc2OC)c1=O	inconclusive: 126 µM [inhibitor, single point]	
O=C1CCCN1CCCNC(=S)Nc1cccc2ccccc12	inconclusive: 50.1 µM [inhibitor, partial curve, poor fit]	
CCCN(CC1CCOC1)C(=O)Nc1ccc(C(F)(F)F)cc1 (stereo not drawn)	inactive	
CCCCOC(=O)/C=C/c1ccc(OC(=O)OC)c(OC(=O)OC)c1	inconclusive: 44.7 µM [inhibitor, partial curve, poor fit]	
Cc1cccc(C)c1OCC(O)CN1CCN(c2ccccn2)CC1 (stereo not drawn)	inactive	
Cc1ccc(OCC(O)CN2CCOCC2)cc1C (stereo not drawn)	inconclusive: 8.91 µM [inhibitor, full curve, poor fit]	
COc1cc(/C=C2/NC(=O)N(Cc3ccccc3F)C2=O)cc(OC)c1O	inconclusive: 50.1 µM [inhibitor, partial curve, poor fit]	
COC[C@@H]1CN(C(=O)c2cc(Cl)ccc2OC)C[C@H]1C(N)=O	inactive	
CC(C)C1C(=O)N(Cc2cn(Cc3ccco3)nn2)CCS(=O)(=O)N1Cc1ccc(-c2ccccc2)cc1 (stereo not drawn)	inconclusive: 39.8 µM [inhibitor, partial curve, poor fit]	
COP(=O)(OC)c1nc(-c2ccc(C)cc2)oc1NCc1ccco1	inconclusive: 141 µM [inhibitor, partial curve, poor fit]	
COc1ccc(CCNCc2ccccc2N2CCCC2)cc1	inconclusive: 1.58 µM [inhibitor, full curve, poor fit]	
O=C1CC(c2ccco2)CC(O)=C1C=NCC1NCCc2ccccc21 (stereo not drawn)	inconclusive: 35.5 µM [inhibitor, single point]	
CC(C)(C)c1cc(Cn2cc(C3CCCNC3)nn2)[nH]n1 (stereo not drawn)	inconclusive: 22.4 µM [inhibitor, full curve, poor fit]	
O=C(N/N=C/c1c(O)ccc2ccccc12)c1[nH]ncc1Br	inconclusive: 50.1 µM [inhibitor, partial curve, poor fit]	
CCCN1C(=O)C(O)(CC(=O)c2ccc3c(c2)OCO3)c2ccccc21 (stereo not drawn)	inconclusive: 112 µM [inhibitor, single point]	
COc1cccc(CN2CCSCC2)c1OC	inconclusive: 39.8 µM [inhibitor, single point]	
O=C(O)c1cc(Cl)c(C(=O)O)cc1Cl	inconclusive: 0.708 µM [inhibitor, full curve, poor fit]	
Cc1ccccc1S(=O)Cc1ccc(C(=O)N2CCN(c3cccc(C)c3C)CC2)o1 (stereo not drawn)	inactive	
COc1ccc(N(CC(=O)NCC(C)C)S(=O)(=O)c2ccccc2)cc1	inactive	
CCC(C)c1ccc(S(=O)(=O)N2CCN(CC(O)CN3CCOCC3)CC2)cc1 (stereo not drawn)	inactive	
C=CCOc1c(CNc2ccc(S(N)(=O)=O)cc2)cccc1OC	inconclusive: 0.199 µM [inhibitor, full curve, poor fit]	

Pulled by compound from the entries so far (two):
Compound	Potency	activity change, negative = inhibition
CC(C)(C)c1cc(Cn2cc(C3CCCNC3)nn2)[nH]n1 (stereo not drawn)	inconclusive: 22.4 µM [inhibitor, full curve, poor fit]	
COc1ccc(N)cc1OCCO	inconclusive: 12.6 µM [inhibitor, full curve, poor fit]	
